Source: paper PMC12777510 (Chempluschem, 2025)

Assay: general procedure: Fmoc solid-phase peptide synthesis; Rink amide resin (side-chain anchoring of Fmoc-Glu-ODmab); cyclisation: DIC/HOBt, then TBTU/HOBt/DIPEA
Conditions: for final purity (method not given): HPLC

In the case of “PEPTIDE1{P.[dN].S.[CF3Itu].N.[dY].[dN].Q}$PEPTIDE1,PEPTIDE1,1:R1-8:R2$$$V2.0”, the isolated yield (whole synthesis) is reported as “yield 15%” and the “final purity (method not given)” value (whole synthesis) is reported as ~95%.

For “PEPTIDE1{P.[dN].S.[bAA14].N.[D-Tyr3CF3].[dN].Q}$PEPTIDE1,PEPTIDE1,1:R1-8:R2$$$V2.0”, the “final purity (method not given)” value (late stage modification step) was 95%, the step yield (late stage modification step, on iturin A2) was “yield 40%” and the isolated yield (whole synthesis) was “yield 15%”. For the same substance, the “final purity (method not given)” value (whole synthesis) was 96%.

With “PEPTIDE1{P.[dN].S.[bAA14].N.[D-Tyr35CF3].[dN].Q}$PEPTIDE1,PEPTIDE1,1:R1-8:R2$$$V2.0” the isolated yield (whole synthesis) was 13% and the “final purity (method not given)” value (whole synthesis) was 98%.

Strings that start with PEPTIDE1 are HELM notation: dots part the residues, brackets hold end groups and non-standard residues.
